# Experimental data taken from PMC10687260, “1,3-Diphenylureido hydroxamate as a promising scaffold for generation of potent antimalarial histone deacetylase inhibitors” (Scientific Reports, 2023).
# Where two headings read alike, the source gives them in different places.
# Legend:
# [1] = test system: P. falciparum 3D7; assay: Antiplasmodial SYBR Green I proliferation assay, P. falciparum 3D7; format: cell-based, Plasmodium falciparum; conditions: values in brackets 95% confidence intervals
# Description: (§1) Antiplasmodial activity against P. falciparum 3D7 (A, C and E) and P. falciparum Dd2 (B, D, F). […] Curves were plotted using non-linear regression based on means from three independent experiments measured in triplicate. Error bars indicate standard deviation, whose values are provided in the respective table.
# (§2) Plasmodium falciparum culture and antiplasmodial activity. […] Development, parasitaemia, and morphology of parasites were monitored by light microscopy of thin blood smears stained according to the Romanowsky method (Panótico Rápido staining kit; Laborclin, Pinhais, Paraná, Brazil). […] Fresh 0^+ blood was generously provided by “Hospital Novo Atibaia” (Atibaia, SP, Brazil), and approved by the ethics committee at ICB-USP. […] Parasite proliferation was measured by the DNA load via fluorescence, using 100 μL of a lysis buffer with SYBR Green I (0.02% v/v) and incubated for 1 h at room temperature in the dark. […] Focal and gain adjustment was performed using the non-treated controls (highest expected fluorescence signal). […] Non-treated parasites, the highest solvent concentration on parasites, CQ on parasites, and the highest drug concentration in the medium were used as controls for maximal growth, solvent control, positive biological control, and native drug fluorescence, respectively.
# [2] = test system: HepG2 cells; assay: Cytotoxicity in human HepG2 cells (WST-1); format: cell-based; conditions: read-out: IC50 HepG2, 48 h, listed as SAHA
# Procedure: Cytotoxicity in human HepG2 cells.[47] […] Cytotoxic effects of compounds were assessed using the cell proliferation reagent WST-1 (Roche; CELLPRO-RO) in a 96-well plate-based screening assay. HepG2 cells were seeded at 10^4 cells/well (100 μL) in 96-well flat-bottom plates (Sarstedt) the night before the experiment to allow attachment of cells. The next day, two-fold serial dilutions of compounds were prepared in fresh medium in an extra plate, and the medium of cells was replaced by the medium containing the compound dilutions. Non-treated cells (max. proliferation), cells treated with the maximal solvent concentration (DMSO; solvent control), and medium with the maximal compound concentration (native absorbance) used as controls. […] Subsequently, 10 μL WST-1 was added to each well and plates were incubated for additional 4 h under standard conditions. WST-1 is a tetrazolium salt and is metabolised by the mitochondrial succinate-tetrazolium-reductase system of living cells and forms formazan, whose absorbance was measured at 450 nm. Absorbance at 630 nm was assessed to check for protein and precipitation background. Both measurements were acquired via the CLARIOstar (V5.20) and MARS software, manually scaled to 0–100%, and plotted with GraphPad Prism (version 9.5.2 for Windows, GraphPad Software, La Jolla California USA).
# [3] = test system: P. falciparum Dd2; assay: Antiplasmodial SYBR Green I proliferation assay, P. falciparum Dd2; format: cell-based; conditions: Plasmodium falciparum, DD2, read-out: IC50 P. falciparum Dd2
# Description: as §1, §2
smiles,measurement,setting,value
"O=C(CCCCCCC(=O)Nc1ccccc1)NO [Vorinostat (SAHA, 1), Vorinostat, reference compound]",IC50,"[1]; Plasmodium falciparum, 3D7, 96 h, read-out: IC50 Pf3D7, 96 h",420 nM
same,IC50,"[1]; read-out: IC50 Pf3D7, 96 h",360 nM
same,IC50,[2],96800 nM
same,IC50,[3],540 nM
